The other results are listed elsewhere or left out. Most entries show no effect beyond the scatter of the controls.
The molecules below were run on ppGalNAc-T3 sensor (assay: T3 sensor activation Q score (MG/GFP ratio z-score vs DMSO controls) (SD units); higher = more sensor activation (inhibition of ppGalNAc-T3 glycosylation)). Details: HEK293 sensor cells; 10 µM; 6 h.
Experimental: (§1)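 Cells were treated with compound at 10 uM for 6 h, then MG/GFP ratio was read by flow cytometry (10,000 cells per well, duplicate wells). Q = (R - R_neg)/SD_neg relative to DMSO vehicle controls; the signal rises when the glycosyltransferase is inhibited.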

Row | SMILES | T3 sensor activation Q score
1 | CN1CCN(Cc2cc([N+](=O)[O-])ccc2O)CC1 | 0.675
2 | Cc1cccc(OCC(=O)Nc2cccc(C)c2C)c1 | 0.35
3 | O=C(O)c1c2c(nc3ccccc13)CCCC2 | -0.01
4 | NNC(=O)COc1ccc(Cl)cc1Cl | 0.185
5 | CC(=O)c1cccc(NC(=O)COc2cc(C)ccc2C(C)C)c1 | -0.255
6 | Cc1ccc(C(=O)c2ccccc2C(=O)O)c(C)c1 | 0.58
7 | COc1ccc(CC(=O)NCc2ccccc2)cc1 | 0.35
8 | CCN(CC)C(=O)C1CCCN(Cc2cc(OC)c(O)c(OC)c2)C1 (stereo not given) | -0.01
9 | CCOc1cc(N2CCOCC2)ccc1[N+](=O)[O-] | -0.095
10 | CCC1CCCCN1S(=O)(=O)c1cc(C)c(C)cc1OC (stereo not given) | 0.875
11 | CC(=O)C1=C(O)C(=O)N(c2ccccn2)C1c1ccc(Br)cc1 (stereo not given) | 0.155
12 | CCOc1cc(CN2CCC(O)CC2)ccc1OC | -0.01
13 | Cc1nc2ccccc2n1C(=O)N(C)C | -0.04
14 | O=C(Nc1cc(Cl)ccc1Cl)c1ccncc1 | 0.18
15 | O=S(=O)(NCCc1ccccc1)c1ccc(Cl)cc1 | 0.555
16 | COc1cc(OC)c(OC)cc1CN1CCN(C/C=C/c2ccccc2)CC1 | 0.065
17 | Cc1ccc(C(c2ccccc2)C2([N+](=O)[O-])C(=O)c3ccccc3C2=O)c(C)c1 (stereo not given) | -0.575
18 | O=C(Nc1ccc(-c2ccccc2)cc1)C1CC1c1ccccc1 (stereo not given) | -0.55
19 | NNc1ncnc2sc3c(c12)CCCC3 | 0.8
20 | Cc1ccc(NC(=O)c2ccco2)cc1 | -0.275

Row | SMILES | T3 sensor activation Q score
21 | COc1cc(O)c(C(=O)c2ccccc2)cc1[N+](=O)[O-] | -0.695
22 | O=C(Nc1cccc(Cl)c1)N1CCCCC1 | 1.09
23 | CCOc1ccccc1CN1CCN(Cc2ccc3c(c2)OCO3)CC1 | 0.41
24 | O=C(C(c1ccccc1)c1ccccc1)N1CCOCC1 | -0.78
25 | COc1ccc(NC2=CC(=O)CC(c3ccccc3)C2)cc1 (stereo not given) | 0.045
26 | COc1ccc(NCc2ccccc2)cc1 | -0.055
27 | Cc1cc(OCC(N)=O)ccc1Cl | 0.395
28 | CCOc1ccc(CN2CCN(c3ccccn3)CC2)cc1 | 0.515
29 | Cc1ccc(C)c(C(C)NC(=O)C(C)Oc2ccccc2)c1 (stereo not given) | 0.905
30 | COc1ccc(S(=O)(=O)Nc2cc(C)ccc2C)cc1 | -0.14
31 | c1ccc(NC(c2ccccc2)c2ccncc2)cc1 (stereo not given) | -0.395
32 | CC(=O)C1=C(O)C(=O)N(Cc2ccccc2)C1c1ccccc1 (stereo not given) | 0.46
33 | CCCCc1ccc(-c2csc(N)c2C(N)=O)cc1 | 1.39
34 | c1cc(-c2nc3ccncc3[nH]2)ccn1 | -0.385
35 | COc1ccccc1C(CC(=O)c1ccccc1)CC(=O)c1ccccc1 | -0.275
36 | CCN(C(=O)Nc1cccc(Cl)c1)c1ccccc1 | -0.475
37 | Cc1ccccc1N1CCN(Cc2ccc(Br)s2)CC1 | 0.02
38 | O=Cc1ccc(-c2ccc([N+](=O)[O-])cc2)o1 | -0.735
39 | Cc1cc(C)n(-c2cc(-n3cccn3)ncn2)n1 | -0.73
40 | CCc1ccccc1NC(=O)C1CCCCC1C(=O)O (stereo not given) | 0.355

The molecules below were run on ppGalNAc-T2 sensor (assay: T2 sensor activation Q score (MG/GFP ratio z-score vs DMSO controls) (SD units); higher = more sensor activation (inhibition of ppGalNAc-T2 glycosylation)). Details: HEK293 sensor cells; 10 µM; 6 h.
Experimental: as §1

Row | SMILES | T2 sensor activation Q score
41 | CN1CCN(Cc2cc([N+](=O)[O-])ccc2O)CC1 | -0.26
42 | Cc1cccc(OCC(=O)Nc2cccc(C)c2C)c1 | -0.245
43 | O=C(O)c1c2c(nc3ccccc13)CCCC2 | -0.955
44 | NNC(=O)COc1ccc(Cl)cc1Cl | -0.24
45 | CC(=O)c1cccc(NC(=O)COc2cc(C)ccc2C(C)C)c1 | -0.115
46 | Cc1ccc(C(=O)c2ccccc2C(=O)O)c(C)c1 | -0.08
47 | COc1ccc(CC(=O)NCc2ccccc2)cc1 | -0.485
48 | CCN(CC)C(=O)C1CCCN(Cc2cc(OC)c(O)c(OC)c2)C1 (stereo not given) | 0.99
49 | CCOc1cc(N2CCOCC2)ccc1[N+](=O)[O-] | -0.665
50 | CCC1CCCCN1S(=O)(=O)c1cc(C)c(C)cc1OC (stereo not given) | 0.415
51 | CC(=O)C1=C(O)C(=O)N(c2ccccn2)C1c1ccc(Br)cc1 (stereo not given) | 0.115
52 | CCOc1cc(CN2CCC(O)CC2)ccc1OC | 1.73
53 | Cc1nc2ccccc2n1C(=O)N(C)C | -0.38
54 | O=C(Nc1cc(Cl)ccc1Cl)c1ccncc1 | 0.205
55 | O=S(=O)(NCCc1ccccc1)c1ccc(Cl)cc1 | -0.88
56 | COc1cc(OC)c(OC)cc1CN1CCN(C/C=C/c2ccccc2)CC1 | -1.06
57 | Cc1ccc(C(c2ccccc2)C2([N+](=O)[O-])C(=O)c3ccccc3C2=O)c(C)c1 (stereo not given) | 0.44
58 | O=C(Nc1ccc(-c2ccccc2)cc1)C1CC1c1ccccc1 (stereo not given) | 0.375
59 | NNc1ncnc2sc3c(c12)CCCC3 | -0.335
60 | Cc1ccc(NC(=O)c2ccco2)cc1 | -1.3

Part of the list above in another layout.
Row,SMILES,T2 sensor activation Q score
43,O=C(O)c1c2c(nc3ccccc13)CCCC2,-0.955
45,CC(=O)c1cccc(NC(=O)COc2cc(C)ccc2C(C)C)c1,-0.115
46,Cc1ccc(C(=O)c2ccccc2C(=O)O)c(C)c1,-0.08
57,Cc1ccc(C(c2ccccc2)C2([N+](=O)[O-])C(=O)c3ccccc3C2=O)c(C)c1 (stereo not given),0.44
60,Cc1ccc(NC(=O)c2ccco2)cc1,-1.3

(more compounds)

Row | SMILES | T2 sensor activation Q score
61 | COc1cc(O)c(C(=O)c2ccccc2)cc1[N+](=O)[O-] | -1
62 | O=C(Nc1cccc(Cl)c1)N1CCCCC1 | 1.52
63 | CCOc1ccccc1CN1CCN(Cc2ccc3c(c2)OCO3)CC1 | 1.16
64 | O=C(C(c1ccccc1)c1ccccc1)N1CCOCC1 | -0.615
65 | COc1ccc(NC2=CC(=O)CC(c3ccccc3)C2)cc1 (stereo not given) | -0.315
66 | COc1ccc(NCc2ccccc2)cc1 | 0.405
67 | Cc1cc(OCC(N)=O)ccc1Cl | -0.165
68 | CCOc1ccc(CN2CCN(c3ccccn3)CC2)cc1 | 1.49
69 | Cc1ccc(C)c(C(C)NC(=O)C(C)Oc2ccccc2)c1 (stereo not given) | -0.1
70 | COc1ccc(S(=O)(=O)Nc2cc(C)ccc2C)cc1 | -0.06
71 | c1ccc(NC(c2ccccc2)c2ccncc2)cc1 (stereo not given) | -0.685
72 | CC(=O)C1=C(O)C(=O)N(Cc2ccccc2)C1c1ccccc1 (stereo not given) | 0.21
73 | CCCCc1ccc(-c2csc(N)c2C(N)=O)cc1 | -0.56
74 | c1cc(-c2nc3ccncc3[nH]2)ccn1 | 0.325
75 | COc1ccccc1C(CC(=O)c1ccccc1)CC(=O)c1ccccc1 | 0.48
76 | CCN(C(=O)Nc1cccc(Cl)c1)c1ccccc1 | -0.325
77 | Cc1ccccc1N1CCN(Cc2ccc(Br)s2)CC1 | 0.335
78 | O=Cc1ccc(-c2ccc([N+](=O)[O-])cc2)o1 | -0.27
79 | Cc1cc(C)n(-c2cc(-n3cccn3)ncn2)n1 | 2.03
80 | CCc1ccccc1NC(=O)C1CCCCC1C(=O)O (stereo not given) | 0.87

From the supplement of paper PMC5407854, “Inhibitor of ppGalNAc-T3-mediated O-glycosylation blocks cancer cell invasiveness and lowers FGF23 levels” (eLife, 2017)
